Test results reported in patent US20250381168A1, “VLA4 INHIBITORS AND USES THEREOF” (Washington University, priority 2022, published 2025).
Certain results were filed several times, with different values. This is not the full list of results. An entry can have further records. Values that stand side by side do not match, cause unknown; dose, time, organism, isomer or construct need not be as stated for each record.

System: hematopoietic stem/progenitor cells (HSPCs)
Assay: HSPC mobilization into peripheral blood, colony forming unit (CFU) assay
Conditions: mice

| SMILES | time to which HSPC mobilization is extended after a single dose |
| --- | --- |
| COCCOCCOCCOCCOCCOCCOCCOCCOCCOCCOCCOCCOCCOCCOCCOCCOCCOCCOCCOCCOCCOCCOCCOCCn1cc(COCCOCCOCc2cc(OC)c(-c3ccc(C[C@H](NC(=O)[C@@H]4CCCN4S(=O)(=O)c4cc(Cl)cc(Cl)c4)C(=O)O)cc3)c(OC)c2)nn1 | 4 hours and > 4 hours |
| COCCOCCOCCOCCOCCOCCOCCOCCOCCOCCOCCOCCOCCOCCOCCOCCOCCOCCOCCOCCOCCOCCOCCOCCOCc1cc(OC)c(-c2ccc(C[C@H](NC(=O)[C@@H]3CCCN3S(=O)(=O)c3cc(Cl)cc(Cl)c3)C(=O)O)cc2)c(OC)c1 [Example 1] | 4 hours and 6 hours and at least 6 hours |
